Source: the supplement of paper PMC3334620
Whole data set: some 33,000 sequences, median “E-score (-0.5 to 0.5)” near -0.0014, cut for the highest 2% near 0.25. The list shows a part of the results.

Molecular target: T1, Cad1 (UniProt P24813)
T1 sequence: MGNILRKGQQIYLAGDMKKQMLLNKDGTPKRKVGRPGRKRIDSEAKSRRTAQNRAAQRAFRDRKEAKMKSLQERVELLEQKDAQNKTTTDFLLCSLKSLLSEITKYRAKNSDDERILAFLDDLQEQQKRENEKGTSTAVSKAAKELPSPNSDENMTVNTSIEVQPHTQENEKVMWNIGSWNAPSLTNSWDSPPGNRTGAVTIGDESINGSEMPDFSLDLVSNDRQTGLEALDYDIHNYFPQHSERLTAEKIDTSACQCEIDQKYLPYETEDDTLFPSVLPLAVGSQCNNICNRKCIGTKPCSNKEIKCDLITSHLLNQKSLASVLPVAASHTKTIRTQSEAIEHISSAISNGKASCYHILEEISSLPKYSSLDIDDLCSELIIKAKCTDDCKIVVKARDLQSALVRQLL
Test: PBM E-score (8-mer binding enrichment) (E-score (-0.5 to 0.5)); higher = stronger / more preferred TF binding
Settings: protein concentration: 100 nM; construct: GST-full length
Method in brief: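 Universal all-10-mer Agilent arrays, double-stranded by primer extension on fresh or once-stripped slides, were probed with about 100-200 nM GST-tagged yeast transcription factors made by PURExpress. Fluorescent anti-GST detected bound protein, and masliner normalised the scans. E-scores from the Universal PBM Analysis Suite were given to each ungapped eight-base word pooled with its reverse complement.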

Sequence	PBM E-score
AAGTCGTA	-0.0848
ATATATCG	0.227
GGGGGCAA	-0.332
ACTCCCTG	-0.0969
CAGACCTC	0.0236
CCGAGTAC	-0.0521
CCTATAAC	-0.06
TACGGCGA	0.0897
GTACAATA	0.148
GGCGGCGA	-0.0215
AGAGCATC	-0.116
TAAGGGAA	-0.058
CATCCGGC	-0.0303
TTAAAGAA	0.0615
ATTAGATG	0.263
CATTCAAC	-0.00191
CAAATAAG	0.0237
AGTAACTA	0.11
CGTTATAC	-0.0845
CCTCGGCC	0.0888
ACACCCAC	0.051
CAGTAATG	0.0464
CTTAGTCC	-0.0572
TCACTAGA	0.088
TACCGCTA	-0.0629

Quoted at random: four entries already listed
Sequence	PBM E-score
CCGAGTAC	-0.0521
CAAATAAG	0.0237
GGGGGCAA	-0.332
ATTAGATG	0.263

The listing continues.

Sequence	PBM E-score
TAGCCGAA	-0.0837
CGTGTGGA	-0.0339
AGACACTC	0.013
AGAACCGC	0.162
ACTTCAAC	0.0624
AAAAACTA	0.0962
GAGACACA	0.119
ATACTCTA	-0.0262
GTCGCCGA	-0.00147
GCAGTAAC	-0.113
AACCCGTC	-0.171
AAAGATAC	-0.051
AGAGGGGC	-0.238
AATCACCC	0.0133
GCTGTAAC	0.0215
AAGGCAAC	0.0609
CAGATTTA	0.109
ACGGGACA	-0.184
AAGGTCGC	-0.0798
ACAGATCT	0.182
CTATTCAG	0.0439
ACCGCCTC	-0.304
ATATATCA	0.134
AATTGAGG	0.146
AAGATCCT	0.144

Sequence	PBM E-score
GCCCAAGA	-0.0848
AGTTGGCC	-0.13
GCTTCCAC	-0.0882
CGGGCGCC	0.045
ATGCCAGA	0.102
GTGCATAA	0.0837
GTGGTCCA	0.139
ACCAAACT	-0.0663
ACCATGAA	0.164
GCTACAAA	0.0933
ACGTTGAA	0.0248
ATGCAACC	0.0532
TGTCAGAA	-0.00196
AAGTTCGG	0.0372
AAGAGATG	-0.0245
CTGGACCA	-0.0298
CACTATTC	0.184
AAGGATGA	0.00249
CATGCACG	-0.086
ATCGGCTC	0.0614
ACTTCGAG	0.0357
GGTGCCAA	-0.0965
ACACTTGG	-0.082
GACCTTGA	-0.0607
AGACGTTA	-0.047

Sequence	PBM E-score
AGGTAGGG	-0.0292
AAACATCA	0.125
AGAATTCC	-0.0367
CAGACGGG	-0.0911
AGGATTGC	-0.0745
AAATCCCG	-0.00231
CAGGGATC	-0.238
GACAAATA	0.293
AGGACTCG	-0.135
TGATTGCA	0.0673
ACCCGCAC	0.0284
ATGAGCCA	0.107
CCCCACGC	-0.275
CGCCGCTC	-0.117
ATGATATC	0.0971
AAGCCCGA	-0.171
CGTCTAGC	0.0518
AATAAGAC	-0.015
CCCGCCTA	0.0947
GGATTAAC	0.0685
ACACAATC	0.0563
CGAGAATC	0.141
ATCGACCA	-0.0938
AATCCAGG	-0.0298
AATGCGAT	0.0759

Sequence	PBM E-score
ACAGACGA	0.0138
CGTAGTAA	0.0258
CCAAAGGC	-0.0958
ACCTAGCA	-0.0189
AAGATATG	0.184
GAAGGCAA	-0.0624
TCCGAGCA	-0.0285
CCGTCACG	-0.0805
ACGTCAGC	0.147
AGCCAATC	-0.126
GCTATGAC	0.0852
AGGGCCAA	-0.278
GAGTGGAA	-0.152
AGGAGCAA	-0.143
CTAGCTCA	-0.0382
AGTATGCC	0.0361
CATGGATC	-0.0634
GATAGTTA	0.0757
AATTCGAA	0.0472
CTGGTCGA	-0.12
GCACATAC	-0.0456
ACGTCTCA	0.105
ACGGTTTC	0.074
GCCCGATA	0.0695
CCGCAAAG	0.129

Sequence	PBM E-score
CACGTGAG	0.0771
CGATCATA	-0.00701
GAGGAAAA	0.082
AAACACTG	0.0814
AACGGTCT	-0.0284
GGACGCCC	-0.167
CAGGTCAA	-0.264
TGGTGAAA	-0.0297
AAGGTAGG	0.0706
CCAGGTCG	-0.193
ACGCGCTA	0.109
ATCTGCGC	-0.0666
GCATGCAA	0.144
TAAAACCA	0.0127
CTGCAGCA	0.0924
CGCCGCCC	-0.0639
CTTCAGTA	0.0842
CAGGCAAG	-0.0992
ACAGTCGC	-0.208
AGCCCATC	-0.203
ACGACACT	0.0214
CCACTCTC	-0.0497
CCGACCAA	0.0488
GGGCAGCA	-0.0781
AGGCTCGA	0.081

Sequence	PBM E-score
CCACGGCG	-0.00429
TGGCCCAA	-0.0497
GCAAGACA	-0.0299
CTGTCGAC	-0.0383
GTTAATAA	0.249
ATTCTAGA	0.0465
ACGTCGTA	-0.158
ACGAGTGG	-0.206
AGTGATTG	-0.187
CCGGTGGA	-0.115
ACTAAGCG	0.3
ATCGCAGA	-0.00647
AATGATAG	0.205
ATCGTTTG	0.179
GCCAAAGC	-0.176
GACTACAC	0.00788
GTGAGTGA	-0.0946
ACCCTAAC	0.0127
ATCTCAGC	0.128
AAAGCCAT	0.118
CGCATTCC	-0.216
AAATGGTC	0.191
